This is an account of results in publication PMC6814582.

Protein sequences, listed by entry. Tags and fused reporters are not part of them. Residues count along the entry.
UniProt P04756, residues 21-457: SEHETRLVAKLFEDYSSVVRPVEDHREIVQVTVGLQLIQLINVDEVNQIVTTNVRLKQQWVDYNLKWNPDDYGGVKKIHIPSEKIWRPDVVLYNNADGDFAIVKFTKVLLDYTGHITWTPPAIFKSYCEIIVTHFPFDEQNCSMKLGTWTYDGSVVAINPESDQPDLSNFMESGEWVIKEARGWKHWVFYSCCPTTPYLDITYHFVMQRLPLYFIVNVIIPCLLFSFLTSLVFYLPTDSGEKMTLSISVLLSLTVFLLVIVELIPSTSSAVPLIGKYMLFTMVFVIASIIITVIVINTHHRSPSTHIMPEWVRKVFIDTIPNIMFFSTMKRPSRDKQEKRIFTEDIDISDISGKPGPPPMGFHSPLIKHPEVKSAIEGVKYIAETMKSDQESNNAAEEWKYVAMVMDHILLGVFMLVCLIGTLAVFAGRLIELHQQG
UniProt P42227: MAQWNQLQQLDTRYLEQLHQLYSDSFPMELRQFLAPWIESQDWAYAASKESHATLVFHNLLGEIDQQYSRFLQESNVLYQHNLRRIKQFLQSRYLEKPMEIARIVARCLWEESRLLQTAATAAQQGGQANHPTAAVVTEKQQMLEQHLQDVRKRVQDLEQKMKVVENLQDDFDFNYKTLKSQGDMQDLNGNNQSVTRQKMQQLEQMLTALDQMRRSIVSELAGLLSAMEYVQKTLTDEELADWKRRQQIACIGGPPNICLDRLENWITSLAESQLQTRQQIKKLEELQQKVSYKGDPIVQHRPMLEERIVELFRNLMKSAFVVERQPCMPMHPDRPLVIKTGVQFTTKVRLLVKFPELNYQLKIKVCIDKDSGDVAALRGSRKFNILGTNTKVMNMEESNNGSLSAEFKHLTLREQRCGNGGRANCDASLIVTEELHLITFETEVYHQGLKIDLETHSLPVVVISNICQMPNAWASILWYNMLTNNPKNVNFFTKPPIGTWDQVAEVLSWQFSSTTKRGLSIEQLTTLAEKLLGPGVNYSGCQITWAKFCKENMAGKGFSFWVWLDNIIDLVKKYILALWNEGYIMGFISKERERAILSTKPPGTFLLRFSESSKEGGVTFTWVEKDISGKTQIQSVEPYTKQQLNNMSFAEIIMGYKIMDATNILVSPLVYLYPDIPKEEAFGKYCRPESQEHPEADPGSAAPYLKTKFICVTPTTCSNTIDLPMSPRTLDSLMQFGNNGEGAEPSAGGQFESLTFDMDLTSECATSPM
UniProt P40763: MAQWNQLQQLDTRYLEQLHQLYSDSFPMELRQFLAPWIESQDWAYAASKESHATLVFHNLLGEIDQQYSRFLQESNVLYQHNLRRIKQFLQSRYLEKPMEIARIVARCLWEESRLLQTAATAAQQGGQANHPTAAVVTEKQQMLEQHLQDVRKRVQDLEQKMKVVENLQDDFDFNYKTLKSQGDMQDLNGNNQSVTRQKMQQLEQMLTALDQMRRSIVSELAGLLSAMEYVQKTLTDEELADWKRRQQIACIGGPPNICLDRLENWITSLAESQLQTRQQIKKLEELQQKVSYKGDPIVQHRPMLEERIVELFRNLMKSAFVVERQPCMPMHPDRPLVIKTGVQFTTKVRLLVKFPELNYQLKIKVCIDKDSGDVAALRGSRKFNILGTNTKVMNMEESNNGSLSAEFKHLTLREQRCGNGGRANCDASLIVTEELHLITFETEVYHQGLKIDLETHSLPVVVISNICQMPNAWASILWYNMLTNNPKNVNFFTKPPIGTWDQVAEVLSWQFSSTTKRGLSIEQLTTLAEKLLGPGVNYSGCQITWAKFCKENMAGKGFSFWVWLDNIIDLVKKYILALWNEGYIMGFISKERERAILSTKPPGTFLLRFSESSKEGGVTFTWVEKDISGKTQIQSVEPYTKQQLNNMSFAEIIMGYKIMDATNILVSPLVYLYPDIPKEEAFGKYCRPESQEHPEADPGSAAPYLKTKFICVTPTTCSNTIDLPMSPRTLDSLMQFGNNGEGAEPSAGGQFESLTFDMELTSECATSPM
UniProt P02708, residues 21-457: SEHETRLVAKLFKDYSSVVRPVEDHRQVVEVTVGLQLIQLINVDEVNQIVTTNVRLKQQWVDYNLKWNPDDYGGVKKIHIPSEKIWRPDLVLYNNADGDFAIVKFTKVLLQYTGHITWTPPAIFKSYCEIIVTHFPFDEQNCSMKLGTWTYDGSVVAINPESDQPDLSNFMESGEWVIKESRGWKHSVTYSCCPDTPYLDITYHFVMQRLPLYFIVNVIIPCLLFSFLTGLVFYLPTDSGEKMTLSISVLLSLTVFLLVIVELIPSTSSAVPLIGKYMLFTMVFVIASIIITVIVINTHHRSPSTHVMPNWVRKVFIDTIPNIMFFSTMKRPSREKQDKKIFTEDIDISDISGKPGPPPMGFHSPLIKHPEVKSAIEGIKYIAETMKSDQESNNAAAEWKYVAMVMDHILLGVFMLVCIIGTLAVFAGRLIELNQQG

Assay [1] addresses nAChRα1-GFP (from α1-GFP-plasmid) (UniProt P04756). Kind of assay: co-IP; 293T cells transfected with α1-GFP-plasmids or STAT3-GFP-plasmids; IP with anti-GFP-tag antibody, other steps as for MOVAS and RAW264.7; western blot. (In general: A western blot detects proteins with antibodies after separation by electrophoresis.)
Assay [2] deals with signal transducer and activator of transcription 3 (STAT3), endogenous in mouse cell lines (mouse (endogenous in MOVAS and RAW264.7)) (UniProt P42227). In words: co-IP; MOVAS whole cell lysate (0.5% Triton X-100 in PBS, protease and phosphatase inhibitors); IP with anti-STAT3 or anti-nAChRα1 antibody, normal mouse IgG as control, 2 h at room temperature; protein A/G magnetic beads; western blot.

Assay [3] has the same target. In words: co-IP; RAW264.7 whole cell lysate (0.5% Triton X-100 in PBS, protease and phosphatase inhibitors); IP with anti-STAT3 or anti-nAChRα1 antibody, normal mouse IgG as control, 2 h at room temperature; protein A/G magnetic beads; western blot.
Assay [4] has as its target STAT3-GFP (from STAT3-GFP-plasmid) (UniProt P42227). In words: co-IP; 293T cells transfected with α1-GFP-plasmids or STAT3-GFP-plasmids; IP with anti-GFP-tag antibody, other steps as for MOVAS and RAW264.7; western blot.
Assay [5] deals with α1 nicotinic acetylcholine receptor (nAChRα1), endogenous in mouse cell lines (mouse (endogenous in MOVAS and RAW264.7)) (UniProt P04756). Kind of assay: co-IP; MOVAS whole cell lysate (0.5% Triton X-100 in PBS, protease and phosphatase inhibitors); IP with anti-STAT3 or anti-nAChRα1 antibody, normal mouse IgG as control, 2 h at room temperature; protein A/G magnetic beads; western blot.

For assay [6] the target is unchanged. In words: co-IP; RAW264.7 whole cell lysate (0.5% Triton X-100 in PBS, protease and phosphatase inhibitors); IP with anti-STAT3 or anti-nAChRα1 antibody, normal mouse IgG as control, 2 h at room temperature; protein A/G magnetic beads; western blot.

These are yes or no findings as the source states them, for the method shown. In cells and extracts the contact can be indirect. Some binding calls cover weakened binding; strength is not graded here.

For “STAT3 in 293T cells (partner of α1-GFP) (from UniProt P40763 1-770)”, the binding result in assay [1] is given as “binds”.
Consider “α1 nicotinic acetylcholine receptor (nAChRα1), endogenous in mouse cell lines (from UniProt P04756 21-457)”, for which the binding result in assay [2] and in assay [3] was “binds” each time.
As for “nAChRα1 in 293T cells (partner of STAT3-GFP) (from UniProt P02708 21-457) (receptor)”, the binding result in assay [4] is on record as “binds”.
Take “signal transducer and activator of transcription 3 (STAT3), endogenous in mouse cell lines (from UniProt P42227 1-770)”: the binding entry in assay [5] and in assay [6] was “binds” throughout.
